Numbering of substitutions follows the chain as printed. Results are given in words; binding and its absence hold for the method and conditions named. Binding seen in cells or lysates may run through a third protein. Some results given as binding are weak or reduced against the parent protein; the word gives no strength. Tags and fused reporters may be left off the sequences shown.
Tests used:
[1] = biological target: T1, HA-tagged human Vav2 (human) (UniProt P52735); test: co-IP; AGS cells co-transfected for 48 h with GFP-cortactin constructs and HA-tagged Vav2, no H. pylori; IP with α-HA antibodies, blot with α-GFP antibodies
T1 sequence: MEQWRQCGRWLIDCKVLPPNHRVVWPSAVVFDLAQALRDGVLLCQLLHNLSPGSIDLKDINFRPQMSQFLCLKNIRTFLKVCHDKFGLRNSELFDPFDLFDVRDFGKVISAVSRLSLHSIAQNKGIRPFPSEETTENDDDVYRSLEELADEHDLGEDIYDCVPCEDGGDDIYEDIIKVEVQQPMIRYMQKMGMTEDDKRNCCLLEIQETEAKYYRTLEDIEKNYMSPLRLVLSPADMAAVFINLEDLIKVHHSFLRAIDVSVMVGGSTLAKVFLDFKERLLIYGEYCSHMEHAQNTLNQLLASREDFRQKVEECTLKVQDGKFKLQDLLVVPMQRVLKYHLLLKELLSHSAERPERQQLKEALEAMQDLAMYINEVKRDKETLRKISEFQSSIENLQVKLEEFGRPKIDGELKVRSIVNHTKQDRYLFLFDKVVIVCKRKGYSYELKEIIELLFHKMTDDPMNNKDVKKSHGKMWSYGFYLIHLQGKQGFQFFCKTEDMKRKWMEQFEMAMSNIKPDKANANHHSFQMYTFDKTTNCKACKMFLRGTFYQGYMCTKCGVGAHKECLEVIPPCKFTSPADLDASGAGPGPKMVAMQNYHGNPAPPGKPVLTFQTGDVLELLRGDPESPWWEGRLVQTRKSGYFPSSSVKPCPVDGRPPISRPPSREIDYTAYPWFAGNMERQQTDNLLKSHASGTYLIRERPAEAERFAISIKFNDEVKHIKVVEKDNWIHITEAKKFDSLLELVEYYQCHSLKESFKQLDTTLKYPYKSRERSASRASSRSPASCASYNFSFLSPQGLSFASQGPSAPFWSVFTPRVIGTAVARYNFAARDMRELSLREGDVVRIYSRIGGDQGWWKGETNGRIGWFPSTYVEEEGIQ

The chains behind the UniProt entries cited, without tags or fusion partners. Where a name states a change or a piece, a line headed by the entry shows the natural chain unless it says otherwise. A line that says so, or that is headed by a name, gives the form on record, which may keep a tag or linker.
UniProt Q60598: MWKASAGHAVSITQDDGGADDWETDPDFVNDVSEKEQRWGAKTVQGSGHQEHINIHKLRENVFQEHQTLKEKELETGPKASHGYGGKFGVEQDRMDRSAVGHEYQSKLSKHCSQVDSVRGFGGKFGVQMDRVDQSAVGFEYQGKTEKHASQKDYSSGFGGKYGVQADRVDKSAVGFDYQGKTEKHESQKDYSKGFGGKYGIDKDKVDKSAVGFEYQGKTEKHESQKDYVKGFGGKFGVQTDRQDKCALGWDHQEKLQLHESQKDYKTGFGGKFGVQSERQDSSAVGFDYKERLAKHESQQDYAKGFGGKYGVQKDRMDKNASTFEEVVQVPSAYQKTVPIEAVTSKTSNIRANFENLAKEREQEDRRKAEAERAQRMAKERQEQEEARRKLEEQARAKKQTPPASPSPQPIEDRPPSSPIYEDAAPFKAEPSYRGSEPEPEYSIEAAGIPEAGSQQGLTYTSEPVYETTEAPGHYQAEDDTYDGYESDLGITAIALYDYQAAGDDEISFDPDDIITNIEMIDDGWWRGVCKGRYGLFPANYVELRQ
GFP-cortactin Y421/466/482D (Q60598, form named): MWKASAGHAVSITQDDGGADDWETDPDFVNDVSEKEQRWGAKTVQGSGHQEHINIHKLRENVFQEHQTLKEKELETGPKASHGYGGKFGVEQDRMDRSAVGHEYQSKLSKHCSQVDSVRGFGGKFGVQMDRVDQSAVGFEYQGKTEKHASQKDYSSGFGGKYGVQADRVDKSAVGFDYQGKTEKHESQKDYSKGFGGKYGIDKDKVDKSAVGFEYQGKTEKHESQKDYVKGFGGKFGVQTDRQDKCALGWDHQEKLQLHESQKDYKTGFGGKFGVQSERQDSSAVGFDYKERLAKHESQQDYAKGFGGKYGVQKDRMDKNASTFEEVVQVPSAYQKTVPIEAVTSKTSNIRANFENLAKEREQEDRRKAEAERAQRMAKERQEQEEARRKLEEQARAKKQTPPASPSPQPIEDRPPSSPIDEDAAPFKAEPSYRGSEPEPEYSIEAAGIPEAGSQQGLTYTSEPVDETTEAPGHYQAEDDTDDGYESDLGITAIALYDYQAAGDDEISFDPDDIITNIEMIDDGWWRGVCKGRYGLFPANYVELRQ
GFP-cortactin Y421/466/482F (Q60598, form named): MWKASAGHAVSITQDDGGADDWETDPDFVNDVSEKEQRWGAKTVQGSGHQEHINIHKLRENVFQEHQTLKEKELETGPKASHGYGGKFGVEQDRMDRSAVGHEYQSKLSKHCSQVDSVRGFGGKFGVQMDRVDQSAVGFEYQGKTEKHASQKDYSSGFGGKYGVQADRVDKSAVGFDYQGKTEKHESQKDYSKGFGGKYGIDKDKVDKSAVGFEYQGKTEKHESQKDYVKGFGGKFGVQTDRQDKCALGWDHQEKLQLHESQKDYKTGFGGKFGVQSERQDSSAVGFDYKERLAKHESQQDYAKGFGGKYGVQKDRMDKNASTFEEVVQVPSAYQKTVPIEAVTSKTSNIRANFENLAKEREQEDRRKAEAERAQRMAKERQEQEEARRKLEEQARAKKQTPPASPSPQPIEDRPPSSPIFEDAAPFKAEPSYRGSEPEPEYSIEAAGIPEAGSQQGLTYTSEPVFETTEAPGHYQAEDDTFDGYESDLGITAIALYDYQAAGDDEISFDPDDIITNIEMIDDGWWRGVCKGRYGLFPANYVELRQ
UniProt Q14247: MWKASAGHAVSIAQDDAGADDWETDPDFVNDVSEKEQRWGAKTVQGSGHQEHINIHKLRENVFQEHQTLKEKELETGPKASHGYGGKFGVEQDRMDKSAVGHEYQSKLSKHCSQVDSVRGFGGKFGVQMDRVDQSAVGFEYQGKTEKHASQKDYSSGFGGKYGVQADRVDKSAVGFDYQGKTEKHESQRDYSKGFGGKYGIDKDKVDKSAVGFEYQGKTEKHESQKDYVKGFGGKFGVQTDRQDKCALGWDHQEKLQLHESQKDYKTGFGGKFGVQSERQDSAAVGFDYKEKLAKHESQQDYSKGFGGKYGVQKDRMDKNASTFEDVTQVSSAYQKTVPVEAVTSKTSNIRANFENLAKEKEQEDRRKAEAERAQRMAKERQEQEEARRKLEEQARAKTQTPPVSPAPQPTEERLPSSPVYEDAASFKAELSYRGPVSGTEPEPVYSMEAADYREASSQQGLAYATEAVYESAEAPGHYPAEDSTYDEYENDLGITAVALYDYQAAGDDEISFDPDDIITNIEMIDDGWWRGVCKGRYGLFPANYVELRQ

GFP-Vav2 R425C = biological target: T2, GFP-Vav2 R425C (UniProt P52735); test: co-IP; AGS cells transfected with GFP-Vav2 constructs for 48 h, infected with wt H. pylori for 6 h; IP with α-GFP antibodies, blot with α-cortactin antibody
T2 sequence: T1 sequence with R425C

GFP-Vav2 Y172/159F = biological target: T3, GFP-Vav2 Y172/159F (UniProt P52735); test: as above
T3 sequence: T1 sequence with Y159F, Y172F

Row | Substance | binding [1] | binding (GFP-Vav2 R425C) | binding (GFP-Vav2 Y172/159F)
1 | GFP-cortactin Y421/466/482D (from UniProt Q60598 1-546) | binds |  | 
2 | GFP-cortactin Y421/466/482F (from UniProt Q60598 1-546) | binds weakly |  | 
3 | GFP-cortactin wt (from UniProt Q60598 1-546) | binds weakly |  | 

More lines, now with the values ahead:

Row | binding [1] | binding (GFP-Vav2 R425C) | binding (GFP-Vav2 Y172/159F) | Substance
4 | binds |  |  | GFP-cortactin Y466D (from UniProt Q60598 1-546)
5 | binds weakly |  |  | GFP-cortactin Y466F (from UniProt Q60598 1-546)
6 |  | binds | binds | cortactin phosphorylated at Y-470 (from UniProt Q14247 1-550)

Source: publication PMC8391897
